Values from PubChem BioAssay AID652243 (Drosophila RNAi Screening Center, 2013).

Aim: 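Fly regulators of androgen-dependent reporter output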 (primary screen)
Cells: Drosophila S2R+ cells
Knock-down reagent: long dsRNA against Drosophila genes
Timing: 72 h (48 h, then 24 h hormone)
Treatment: synthetic androgen R1881 at 10 nM for 24 h
Read-out: 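Firefly light from an androgen-responsive reporter and Renilla control light per well, raw and unnormalised, for each of two replicates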
Reading the numbers: firefly reporter light: higher = more light from androgen-responsive reporter; Renilla control light: higher = more constitutive control signal (cell number, transfection)
Active means: 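Across duplicate plates, a knock-down whose log firefly/Renilla ratio shifted a set fold down or up from the GFP/LacZ control mean was a hit; the downward cut appears as both 1.5 and 3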
Meaning of the calls: active = hit: reporter lowered or raised; inactive = no hit
The screen tested about 24,000 reagents; shown is an unselected part of those with a known target gene and a result. Over the whole deposit, 246 (1%) were called active. 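Plates not normalised; calls are printed but the firefly/Renilla ratio behind them is not deposited; fold cut for lowering reported inconsistently.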 Raw values vary from plate to plate and are shown uncorrected. Names joined by + are all predicted targets of the reagent. The record does not give: the amount of reagent.

Target gene,DRSC id,"firefly reporter light, replicate 1","firefly reporter light, replicate 2","Renilla control light, replicate 1","Renilla control light, replicate 2",call
CG13297,DRSC09971,2.07e5,1.74e5,2.51e6,2.32e6,inactive
Cds + Setx,DRSC27090,6.19e5,5.87e5,8.84e5,4.63e5,inactive
Ack,DRSC08135,1.13e5,97321,7.15e5,1.09e6,inactive
Ack,DRSC28013,5.50e5,4.24e5,1.27e6,1.07e6,inactive
Ack,DRSC37045,,,,,active
CG33791 + CG18170,DRSC08523,1.97e5,1.89e5,2.74e6,3.18e6,inactive
CG33791 + CG18170,DRSC08601,29963,1.12e5,6.43e5,1.40e6,inactive
CG33791 + CG18170,DRSC24614,9.37e5,9.03e5,7.16e5,7.98e5,inactive
CG33791 + CG18170,DRSC39043,5.29e5,3.12e5,1.42e6,9.74e5,inactive
CG10959,DRSC17769,1.22e5,74258,4.45e5,3.02e5,inactive
CG10959,DRSC29120,4.33e5,4.29e5,1.52e6,1.70e6,inactive
EMC3,DRSC02989,1.91e5,2.87e5,1.51e6,1.60e6,inactive
EMC3,DRSC28014,5.67e5,6.70e5,1.68e6,1.80e6,inactive
galectin,DRSC00305,1.23e5,71919,4.70e5,6.78e5,inactive
Lmx1a,DRSC09726,1.07e5,1.36e5,1.16e6,1.06e6,inactive
Lmx1a,DRSC26224,3.18e5,2.55e5,8.42e5,7.97e5,inactive
CG13318,DRSC14581,84862,1.36e5,1.93e6,1.91e6,inactive
Muc12Ea,DRSC19937,5.44e5,6.05e5,1.63e6,1.83e6,inactive
Muc12Ea,DRSC28059,2.77e5,2.77e5,1.06e6,9.85e5,inactive
bonsai,DRSC04453,3.41e5,3.34e5,2.22e6,1.55e6,inactive
bonsai,DRSC24153,6.64e5,6.09e5,8.98e5,7.72e5,inactive
HemK2 + Snapin,DRSC00736,6.53e5,8.90e5,2.25e6,1.78e6,inactive
CG10062,DRSC05960,3.29e5,4.75e5,4.06e5,3.27e5,inactive
CG10062,DRSC22535,5.97e5,4.81e5,2.48e6,1.73e6,inactive
CG10062,DRSC24932,1.18e6,1.12e6,1.21e6,1.02e6,inactive
CG15118,DRSC06540,8.23e5,8.85e5,1.20e6,1.02e6,inactive
Samuel,DRSC21731,6.46e5,6.11e5,1.79e6,2.02e6,inactive
Samuel,DRSC23114,1.19e6,1.43e6,1.36e6,1.71e6,inactive
Fam92,DRSC02952,1.02e6,6.74e5,2.49e6,2.14e6,inactive
Fam92,DRSC29237,4.80e5,4.94e5,8.88e5,1.07e6,inactive
unk,DRSC17093,1.15e5,1.25e5,9.27e5,1.04e6,inactive
unk,DRSC28754,4.54e5,3.92e5,4.03e5,4.88e5,inactive
Dop1R1,DRSC13021,99764,81312,1.82e5,2.39e5,inactive
Dop1R1,DRSC16652,51424,37189,7.41e5,7.45e5,inactive
Dop1R1,DRSC23514,3.48e5,3.34e5,4.82e5,5.73e5,inactive
Abd-B,DRSC14098,1.93e5,2.14e5,2.04e6,2.44e6,inactive
Abd-B,DRSC14337,1.58e5,1.29e5,1.91e6,1.53e6,inactive
Abd-B,DRSC28796,2.92e5,3.11e5,9.03e5,9.66e5,inactive
CG8306,DRSC07141,3.72e5,4.83e5,4.18e5,5.39e5,inactive
CG8306,DRSC24656,1.09e6,9.47e5,1.25e6,1.42e6,inactive
CG2150,DRSC23444,7.02e5,7.74e5,7.62e5,7.75e5,inactive
Alg10,DRSC10892,1.66e5,1.76e5,2.04e6,1.94e6,inactive
CG13102,DRSC02202,2.28e5,2.14e5,1.61e6,1.09e6,inactive

Active calls, among the entries above:
Target gene,DRSC id,"firefly reporter light, replicate 1","firefly reporter light, replicate 2","Renilla control light, replicate 1","Renilla control light, replicate 2",call
Ack,DRSC37045,,,,,active

Next reagents:
Target gene,DRSC id,"firefly reporter light, replicate 1","firefly reporter light, replicate 2","Renilla control light, replicate 1","Renilla control light, replicate 2",call
ArgRS,DRSC20138,3.90e5,3.50e5,2.52e6,1.85e6,inactive
CG5597,DRSC04517,6.10e5,4.91e5,1.32e6,1.14e6,inactive
CG2269,DRSC06833,7.19e5,5.54e5,1.11e6,1.23e6,inactive
mus302,DRSC09905,2.16e5,2.38e5,2.13e6,2.00e6,inactive
CG30377,DRSC06477,1.04e6,8.26e5,2.18e6,2.17e6,inactive
CG30377,DRSC25708,6.86e5,9.32e5,1.06e6,9.96e5,inactive
CG15548,DRSC15086,3.11e5,2.94e5,2.77e6,2.82e6,inactive
CG15548,DRSC26941,3.55e5,2.63e5,7.01e5,4.11e5,inactive
CG31125,DRSC13684,1.06e5,66073,1.53e5,1.82e5,inactive
CG31125,DRSC25124,8.62e5,1.38e6,7.48e5,8.95e5,inactive
CG32982,DRSC02677,2.30e5,2.70e5,1.72e6,1.74e6,inactive
CG32982,DRSC03269,1.28e5,1.53e5,1.08e6,1.31e6,inactive
CG32982,DRSC21912,1.01e6,6.08e5,1.59e6,1.52e6,inactive
alpha-Man-Ib,DRSC14418,59928,78050,4.81e5,3.71e5,inactive
alpha-Man-Ib,DRSC26131,2.82e5,2.74e5,7.85e5,7.07e5,inactive
CG14969,DRSC08428,9.27e5,1.06e6,2.23e6,2.15e6,inactive
Cont,DRSC12149,64081,91616,3.45e5,4.18e5,inactive
CG2898,DRSC18238,3.28e5,4.13e5,2.54e6,3.81e6,inactive
Icmt,DRSC09834,2.15e5,1.76e5,2.14e6,2.02e6,inactive
CG9300,DRSC11064,30648,24906,3.10e5,2.52e5,inactive
CG42336,DRSC05273,1.65e5,1.48e5,2.61e5,3.17e5,inactive
CG42336,DRSC06332,2.55e5,93879,1.41e6,9.20e5,inactive
CG42336,DRSC06333,2.73e5,2.26e5,2.20e6,2.15e6,inactive
CG42336,DRSC28729,4.77e5,4.60e5,1.42e6,1.65e6,inactive
CG42336,DRSC29534,3.35e5,3.28e5,8.60e5,8.60e5,inactive
CG34222,DRSC38676,6.13e5,5.45e5,1.98e6,1.88e6,inactive
cl,DRSC02118,7.03e5,5.52e5,2.23e6,1.77e6,inactive
oaf,DRSC00831,89941,72417,8.20e5,8.36e5,inactive
CG4701,DRSC01952,1.09e5,1.15e5,1.36e6,1.27e6,inactive
CG9117,DRSC03141,2.21e5,1.64e5,1.99e6,1.13e6,inactive
CG6040,DRSC15954,1.21e5,90602,6.00e5,5.05e5,inactive
CG6040,DRSC26100,3.61e5,2.27e5,7.89e5,5.24e5,inactive
